Measured values as given in PubChem BioAssay AID1439 (NMMLSC, 2008).
Among all 220,000 compounds or so, about 770 (0.35%) were called active. The inconclusive results got no clear call from the source; some entries with a clear call stand among them for comparison. Rule as the data show it: active = binding response below about 49% or above about 150%; inconclusive = no clear call, values can overlap the other calls; inactive = in between.

Sequences of proteins named here, by UniProt entry; tags and fusion partners are left off.
UniProt P09471, whole entry, looked up: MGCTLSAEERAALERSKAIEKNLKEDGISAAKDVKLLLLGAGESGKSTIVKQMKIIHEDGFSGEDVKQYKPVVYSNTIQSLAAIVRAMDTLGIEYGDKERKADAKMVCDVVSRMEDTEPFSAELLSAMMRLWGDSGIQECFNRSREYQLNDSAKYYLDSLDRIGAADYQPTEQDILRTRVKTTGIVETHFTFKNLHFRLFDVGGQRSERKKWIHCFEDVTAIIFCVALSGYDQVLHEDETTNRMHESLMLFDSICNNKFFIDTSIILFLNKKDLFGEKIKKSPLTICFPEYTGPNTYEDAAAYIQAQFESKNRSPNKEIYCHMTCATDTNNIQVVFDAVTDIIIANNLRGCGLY

Target: Guanine nucleotide-binding protein G(o) subunit alpha (Homo sapiens) (UniProt P09471)
Assay: RGS7-Galphao binding modulators, primary screen, biochemical, multiplexed bead flow cytometry (AID 1439);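 also: fluorescent Galphao held in activated GDP-AlF4 state binding bead-coupled RGS7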
Settings: at 10 µM, actives lie on both sides

Compound	binding response (% of control)
Nc1nc(SCc2ccccc2)n[nH]1	inconclusive: 102%
O=C1N(c2ccccc2)C(c2ccccc2)N2CCCN12 (stereo not given)	inconclusive: 58.5%
COc1cc(/C=N/N2C(=O)CSC2=S)cc(Br)c1O	inconclusive: 111%
COc1ccc(CCn2c(NN)nc3c2c(=O)[nH]c(=O)n3C)cc1	inconclusive: 103%
Cc1ccc(NC(=O)CC2S/C(=N/N=C3/NC(=O)CS3)NC2=O)cc1 (stereo not given)	inactive: 106%
Cc1cc2oc(=O)cc(C)c2cc1NC(=O)CCl	inconclusive: -6.95%
COc1ccc(NC(=S)N(CCCN2CCCC2)Cc2cccn2Cc2ccc(Cl)cc2)cc1Cl	inactive: 101%
CC(C)C(=O)Nc1ncc(Cc2cccc(Cl)c2)s1	inconclusive: 95.6%
O=C(/C=C/c1cccc([N+](=O)[O-])c1)N1CC[C@@]2(O)CCCC[C@H]2C1	inconclusive: 120%
COc1ccc(Oc2ccc(C(F)(F)F)cc2NC(=O)c2ccc(F)cc2)cc1	inconclusive: 89.1%
N#C/C(=C\c1c(N2CCC(C(N)=O)CC2)nc2ccccn2c1=O)S(=O)(=O)c1ccc(Cl)cc1	inconclusive: 121%
O=C(CSc1nc2ccccc2c(=O)n1-c1ccccc1)NCc1ccc2c(c1)OCO2	inactive: 103%
NC(=O)C1(N2CCCCC2)CCN(Cc2nc(-c3cccs3)no2)CC1	inconclusive: 73.7%
CCOc1ccc(S(=O)(=O)NC2CCCCCC2)cc1	active: 34.7%
Nc1cccc(C(=O)N/N=C/c2ccsc2)c1	inconclusive: 123%
CCS(=O)(=O)c1ccc2c(c1)N(S(=O)(=O)c1ccc(Cl)cc1)CC(C(=O)O)O2 (stereo not given)	inconclusive: 93.8%
CCn1c(C)nc2cc(C(N)=O)ccc21	inconclusive: 104%
O=C(N=C1SCC(=O)N1c1ccccc1Cl)c1ccccc1	inactive: 97.2%
Cc1sc2ncn(CC(=O)NCc3ccccc3)c(=O)c2c1C	inconclusive: 105%
O=C(Cc1c[nH]c2ccccc12)N/N=C/c1ccccc1O	inconclusive: 156%
O=C(O)c1ccc2c(c1)CCC2	inconclusive: 109%
CC(C)CCNC(=O)CCCCn1c(=O)[nH]c2ccsc2c1=O	inconclusive: 103%
COc1cccc(C(=O)OCn2nnc3ccccc3c2=O)c1OC	inconclusive: 99%

Compound	binding response (% of control)
CC(C)CN1C=C2C(=O)C(C)(OC(=O)CCc3ccccc3)C(=O)C=C2C=C1c1ccc(C#N)cc1 (stereo not given)	inconclusive: 87.3%
CCn1c(O)c(C2=c3ccccc3=NC2=O)c2cc(Br)ccc21	inconclusive: 87.6%
COc1ccc([N+](=O)[O-])cc1NC(=O)C(C)OC(=O)c1ccccc1C(=O)c1ccc(Cl)cc1 (stereo not given)	inactive: 103%
CCOc1ncccc1C(=O)OCc1cccc([N+](=O)[O-])c1	inactive: 98.5%
O=C(NCCN1CCN(c2cccc(Cl)c2)CC1)C1CCCN(S(=O)(=O)c2cnc[nH]2)C1 (stereo not given)	inactive: 114%
Cc1cc(Br)ccc1SCC(=O)OCC(=O)NCc1ccco1	inconclusive: 126%
CCOc1ccc(CN(C(=O)c2cc3ccccc3oc2=O)C2CCS(=O)(=O)C2)cc1 (stereo not given)	inconclusive: 109%
C=CCn1c(=N)c(C#N)cc2c(=O)n3ccccc3nc21	inactive: 99.2%
O=C(c1csc(Nc2cccc3ccccc23)n1)N1CCCC1	inconclusive: 54.9%
O=C(COc1ccc(Nc2ccccc2)cc1)OCC(=O)N1CCCCC1	inconclusive: 367%
COC(=O)Nc1nc(-c2ccc(F)cc2)c(C)s1	inconclusive: 99.2%
COc1ccc(NC(=O)c2[nH]c(C)c(C(C)=O)c2C)cc1	inconclusive: 105%
Cc1cc(C)c2c(=O)n(CC(=O)Nc3cccc(F)c3)sc2n1	inconclusive: 231%
COc1cccc(/C=N/NC(=O)Cn2cnc3c2c(=O)n(C)c(=O)n3C)c1OC	inconclusive: 47.8%
CC1CCCC(C)N1C(=O)CN1C(=O)C(C)(C)Oc2ccc(C(=O)NC3CCCCC3)cc21 (stereo not given)	inactive: 91.3%
COc1ccccc1NC(=O)CSC(N)=O	inactive: 87%
Nc1nccnc1C(=O)N/N=C/c1ccco1	inconclusive: 109%
COc1ccc(-n2c(-c3cc(-c4ccccc4)sc3N)n[nH]c2=S)cc1	inconclusive: 104%
CC(C)c1nnc(NC(=O)COc2ccccc2[N+](=O)[O-])s1	inconclusive: 132%
O=C(c1ccccc1)c1ccccc1NC(=O)C1CCCN1Cc1ccccc1 (stereo not given)	inconclusive: 75.9%
CCNc1nnc(CCn2nc(C)c(Br)c2C)s1	inactive: 107%
CC1=C(C(=O)OCC(C)C)C(c2cccc(F)c2)N2C(=O)C(C)SC2=N1 (stereo not given)	inactive: 101%
Cc1nc(Nc2ccc(F)cc2)nc(Nc2ccc(F)cc2)c1[N+](=O)[O-]	inconclusive: 102%

Compound	binding response (% of control)
Cc1ccc(/C=N/NC(=O)C(c2ccncc2)N2CCOCC2)cc1 (stereo not given)	inconclusive: 84.2%
OCCC1CN(Cc2cccn2-c2ncccn2)CCN1C1CCCC1 (stereo not given)	inactive: 104%
Cc1ccc(/C=N/NC(=O)CN2CCN(Cc3ccccc3)CC2)o1	inconclusive: -101%
CCn1cc(C(=O)O)c(=O)c2cc(F)c(N3CCN(C(=S)NC(=O)c4cccc(F)c4)CC3)cc21	inconclusive: 94.4%
Cc1cccc(OCC2CCCN(Cc3nc(C4CC4)no3)C2)c1 (stereo not given)	inactive: 104%
CCN(CC(=O)NCCC1=CCCCC1)S(=O)(=O)c1ccccc1	inconclusive: 19.7%
Cc1ccc(CNC(=O)c2ccccc2-n2cnnn2)cc1	inconclusive: 929%
CC(=O)Nc1cccc(OCCCNC(=O)c2ccc(F)cc2)c1	inconclusive: 120%
COc1ccc2c(c1OC)C(=O)N1N=C(c3ccc(F)cc3)CC21 (stereo not given)	inactive: 99%
Cc1ccc(S(=O)(=O)N2CCN(c3nccnc3C#N)CC2)cc1	inconclusive: 320%
CCN(C(=O)COC(=O)c1cc(=O)[nH]c2ccccc12)C1CCS(=O)(=O)C1 (stereo not given)	inconclusive: 123%
CNc1cncc(C(=O)O)c1	inactive: 101%
Cc1ccc(SC[C@H](c2ccccc2)N2CCN(CCc3ccccc3)CCC2=O)cc1	inconclusive: 92.9%
O=C(c1cccc(C(F)(F)F)c1)c1c[nH]c(C(=O)NCCCN2CCOCC2)c1	inconclusive: 111%
CCOc1ccccc1NC(=O)NCc1ccco1	inconclusive: 44.6%
Cc1cc(C)c2c3c(oc2n1)C(=O)N(c1cccc(Cl)c1)CC(=O)N3	inconclusive: 92.7%
CC(=O)Oc1cc2c3c(c1)/C(=C1/SC(=S)NC1=O)C(=O)N3C(C)(C)C=C2C	inconclusive: 99.2%
Cc1ccccc1Nc1nc(N)nc(CSc2nc3ccccc3c(=O)n2C)n1	inactive: 96.5%
Cc1nn(-c2ccccc2)c(NC(=O)c2cccs2)c(-c2ccccc2Cl)c1=O	inconclusive: 102%
COCCN1Cc2cccc(C(=O)Nc3cccc(-c4nc5ccccc5[nH]4)c3)c2C1=O	inconclusive: -115%
Cc1ccc(C(=O)OCC(=O)Nc2cc(S(=O)(=O)N3CCOCC3)ccc2C)cc1	inconclusive: 102%
CCn1c(SCc2nc3scc(-c4ccccc4)c3c(=O)[nH]2)nnc1-c1ccc(Cl)cc1	inactive: 93.7%
COc1ccc(N(CN2C(=O)C3CCCCC3C2=O)C(=O)c2ccco2)cc1 (stereo not given)	inconclusive: 106%

Random excerpt: 5 entries already listed, in no set order.
Compound	binding response (% of control)
CCn1c(SCc2nc3scc(-c4ccccc4)c3c(=O)[nH]2)nnc1-c1ccc(Cl)cc1	inactive: 93.7%
CC(=O)Oc1cc2c3c(c1)/C(=C1/SC(=S)NC1=O)C(=O)N3C(C)(C)C=C2C	inconclusive: 99.2%
CC(=O)Nc1cccc(OCCCNC(=O)c2ccc(F)cc2)c1	inconclusive: 120%
Cc1ccc(S(=O)(=O)N2CCN(c3nccnc3C#N)CC2)cc1	inconclusive: 320%
COc1ccc2c(c1OC)C(=O)N1N=C(c3ccc(F)cc3)CC21 (stereo not given)	inactive: 99%

Next entries:

Compound	binding response (% of control)
CCOC(=O)c1ccc(NC(=O)c2nc[nH]c2C(=O)N2CCN(C(=O)OC(C)(C)C)CC2)cc1	inconclusive: 155%
CC(=O)C1C(c2ccc(Cl)cc2)c2c(noc2C)CC1(C)O (stereo not given)	inconclusive: 106%
O=C(NC1CCCCC1)C(=S)NCc1ccccc1	inconclusive: 118%
CCN1CCN(Cc2ccc(NC(=O)c3ccc(C)c(NC(=O)N4CCNC4=O)c3)cc2C(F)(F)F)CC1	inconclusive: 101%
Cc1cccc(C)c1NC(=O)NCc1ccco1	inconclusive: 94%
O=C(Nc1nnc(C2=COCCO2)o1)c1ccc(Cc2ccccc2)cc1	inconclusive: 87.9%
CCCc1c(C(=O)O)cnn1-c1ccc(Cl)cc1	inconclusive: 136%
COc1cc(OC)c2c(C)cc(=O)oc2c1C(CCN1CCOCC1)c1ccc2c(c1)OCO2 (stereo not given)	inconclusive: 85.4%
O=C(OCc1nc2ccccc2s1)c1cccc(N2C(=O)CCC2=O)c1	inconclusive: 120%
Cn1/c(=N/N=C/c2ccc(N3CCOCC3)cc2)sc2ccccc21	inconclusive: 89.8%
CSCCC(NS(=O)(=O)c1ccc2c(c1)oc(=O)n2C)C(=O)NCc1cccs1 (stereo not given)	inconclusive: 90.6%
CC1(C)CC(=O)C2=C(C1)N(CCN1CCOCC1)C1=C(C(=O)CC(C)(C)C1)C2c1ccc(Cl)cc1	inconclusive: 123%
CCOc1ccc(-c2c(C(=O)N/N=C/c3ccc(OC)cc3)nnn2-c2nonc2N)cc1	inactive: 94.1%
CC1CCN(C(=O)COC(=O)CCc2c[nH]c3ccccc23)CC1	inconclusive: 116%
CC(O)[C@H]1CNC(=O)C(=O)N1CCc1cccc(F)c1 (stereo not given in full)	inconclusive: 133%
C/C(=N\NC(=O)C(N)=O)c1ccc(OC(F)F)cc1	inconclusive: 91.3%
O=C(CSC(=S)N1CCOCC1)Nc1nccs1	inconclusive: 54.8%
CN(C)c1ccc(/C=C2/C=C(c3ccc4c(c3)CCCC4)OC2=O)cc1	inconclusive: 88.5%
Nc1cc(=O)[nH]c(SCC(=O)NNC(=O)Cc2ccccc2)n1	inconclusive: 87.6%
O=C(c1ccccc1)N1CCN(c2nc3ccc([N+](=O)[O-])cc3s2)CC1	inconclusive: 121%
COc1ccc(C(=O)COC(=O)c2cc(S(=O)(=O)NCc3ccccc3)ccc2O)cc1	inconclusive: 88.4%
